Patent US8211649B2, “Methods of diagnosing and prognosing hodgkin's lymphoma” (Human Genome Sciences, Inc., priority 2006, dated 2012)
At least one compound was matched to its structure with a doubt left.

System: splenic B cells
Assay: B cell survival assay (trypan blue exclusion)
Format: cell-based, mouse
Settings: 50 nM rapamycin

CO[C@H]1C[C@@H]2CC[C@@H](C)[C@@](O)(O2)C(=O)C(=O)N2CCCC[C@H]2C(=O)O[C@H]([C@H](C)C[C@@H]2CC[C@@H](O)[C@H](OC)C2)CC(=O)[C@H](C)/C=C(\C)[C@@H](O)[C@@H](OC)C(=O)[C@H](C)C[C@H](C)/C=C/C=C/C=C/1C [rapamycin]
effect on Neutrokine-alpha's ability to enhance B cell survival (Pim-1-/-2-/- B cells): abrogated | effect on Neutrokine-alpha-mediated enhancement of survival (total B or CD23+ B cells from normal donors, 4 days): did not prevent
